The numbers were not newly measured in US20050009897A1, “Method of treatment” (priority 2001, published 2005), which cites them from elsewhere.

For the data set the following is noted: 45 hypertensive diabetic patients; cited from earlier work.

Regarding `CC(C)NCC(O)COc1ccc(CC(N)=O)cc1` (stereo not shown) [atenolol], the HbA1c result is on record as “increased”.
